# Experimental data: the supplement of paper PMC8728848
# The other results are listed elsewhere or left out.
# Tests used:
# Assay in all cases: glycan array binding signal (z-score within array); higher = stronger binding
# Conditions in all cases: glycan notation: IUPAC condensed, linker removed
# [1] = target: Neu5Ac(a2-3)Gal(b1-3)GlcNAc(b1-2)Man(a1-3)[GlcNAc(b1-4)][Neu5Ac(a2-3)Gal(b1-3)GlcNAc(b1-2)Man(a1-6)]Man(b1-4)GlcNAc(b1-4)GlcNAc
# In short: (§1)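 Negative Z-scores can be read as non-binding. The Z-score is calculated within each array and then averaged across arrays of one protein sequence at different concentrations or buffers and across linkers. Arrays, 3228 in all, were curated from the Consortium for Functional Glycomics database and kept only where the protein sequence was available.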
# [2] = target: Neu5Ac(a2-3)Gal(b1-3)GlcNAc(b1-2)Man(a1-3)[Neu5Ac(a2-3)Gal(b1-3)GlcNAc(b1-2)Man(a1-6)]Man(b1-4)GlcNAc(b1-4)GlcNAc
# In short: as §1
# [3] = target: Neu5Ac(a2-3)Gal(b1-3)GlcNAc(b1-3)Gal(b1-3)GlcNAc
# In short: as §1
# [4] = target: Neu5Ac(a2-3)Gal(b1-3)GlcNAc(b1-3)Gal(b1-4)GlcNAc
# In short: as §1
# [5] = target: Neu5Ac(a2-3)Gal(b1-3)GlcNAc(b1-3)GalNAc
# In short: as §1
# [6] = target: Neu5Ac(a2-3)Gal(b1-3)GlcNAc(b1-4)Gal(b1-4)Glc
# In short: as §1
# [7] = target: Neu5Ac(a2-3)Gal(b1-3)GlcNAc(b1-6)GalNAc
# In short: as §1
# [8] = target: Neu5Ac(a2-3)Gal(b1-3)GlcNAc6S
# In short: as §1
# [9] = target: Neu5Ac(a2-3)Gal(b1-3)[Fuc(a1-4)]GlcNAc
# In short: as §1
# [10] = target: Neu5Ac(a2-3)Gal(b1-3)[Fuc(a1-4)]GlcNAc(b1-3)Gal(b1-3)[Fuc(a1-4)]GlcNAc
# In short: as §1
# [11] = target: Neu5Ac(a2-3)Gal(b1-3)[Fuc(a1-4)]GlcNAc(b1-3)Gal(b1-4)[Fuc(a1-3)]GlcNAc
# In short: as §1
# [12] = target: Neu5Ac(a2-3)Gal(b1-3)[GlcNAc(b1-6)]GalNAc
# In short: as §1
# [13] = target: Neu5Ac(a2-3)Gal(b1-3)[Neu5Ac(a2-6)]GalNAc
# In short: as §1
# [14] = target: Neu5Ac(a2-3)Gal(b1-3)[Neu5Ac(a2-6)]GlcNAc(b1-3)[Fuc(a1-3)[Gal(b1-4)]GlcNAc(b1-6)]Gal(b1-4)Glc
# In short: as §1
# [15] = target: Neu5Ac(a2-3)Gal(b1-3)]Neu5Ac(a2-3)Gal(b1-4)]GlcNAc
# In short: as §1
# Neu5Ac(a2-3)Gal(b1-4)Glc = target: Neu5Ac(a2-3)Gal(b1-4)Glc
# In short: as §1
# [16] = target: Neu5Ac(a2-3)Gal(b1-4)GlcNAc
# In short: as §1
# [17] = target: Neu5Ac(a2-3)Gal(b1-4)GlcNAc(b1-2)Man
# In short: as §1
# [18] = target: Neu5Ac(a2-3)Gal(b1-4)GlcNAc(b1-2)Man(a1-3)[GlcNAc(b1-4)][Neu5Ac(a2-3)Gal(b1-4)GlcNAc(b1-2)Man(a1-6)]Man(b1-4)GlcNAc(b1-4)GlcNAc
# In short: as §1
# [19] = target: Neu5Ac(a2-3)Gal(b1-4)GlcNAc(b1-2)Man(a1-3)[Neu5Ac(a2-3)Gal(b1-4)GlcNAc(b1-2)Man(a1-6)]Man(b1-4)GlcNAc(b1-4)GlcNAc
# In short: as §1
# [20] = target: Neu5Ac(a2-3)Gal(b1-4)GlcNAc(b1-2)Man(a1-3)[Neu5Ac(a2-3)Gal(b1-4)GlcNAc(b1-2)Man(a1-6)]Man(b1-4)GlcNAc(b1-4)[Fuc(a1-6)]GlcNAc
# In short: as §1
# [21] = target: Neu5Ac(a2-3)Gal(b1-4)GlcNAc(b1-2)Man(a1-3)[Neu5Ac(a2-6)Gal(b1-4)GlcNAc(b1-2)Man(a1-6)]Man(b1-4)GlcNAc(b1-4)GlcNAc
# In short: as §1
# [22] = target: Neu5Ac(a2-3)Gal(b1-4)GlcNAc(b1-2)[Neu5Ac(a2-3)Gal(b1-4)GlcNAc(b1-4)]Man(a1-3)[GlcNAc(b1-4)][Neu5Ac(a2-3)Gal(b1-4)GlcNAc(b1-2)[Neu5Ac(a2-3)Gal(b1-4)GlcNAc(b1-6)]Man(a1-6)]Man(b1-4)GlcNAc(b1-4)GlcNAc
# In short: as §1
# [23] = target: Neu5Ac(a2-3)Gal(b1-4)GlcNAc(b1-2)[Neu5Ac(a2-3)Gal(b1-4)GlcNAc(b1-4)]Man(a1-3)[GlcNAc(b1-4)][Neu5Ac(a2-3)Gal(b1-4)GlcNAc(b1-4)Man(a1-6)]Man(b1-4)GlcNAc(b1-4)GlcNAc
# In short: as §1
# [24] = target: Neu5Ac(a2-3)Gal(b1-4)GlcNAc(b1-2)[Neu5Ac(a2-3)Gal(b1-4)GlcNAc(b1-6)]Man(a1-6)[Neu5Ac(a2-3)Gal(b1-4)GlcNAc(b1-2)Man(a1-3)]Man(b1-4)GlcNAc(b1-4)GlcNAc
# In short: as §1
# [25] = target: Neu5Ac(a2-3)Gal(b1-4)GlcNAc(b1-2)[Neu5Ac(a2-3)Gal(b1-4)GlcNAc(b1-6)]Man(a1-6)[Neu5Ac(a2-3)Gal(b1-4)GlcNAc(b1-2)Man(a1-3)][GlcNAc(b1-4)]Man(b1-4)GlcNAc(b1-4)GlcNAc
# In short: as §1
# [26] = target: Neu5Ac(a2-3)Gal(b1-4)GlcNAc(b1-3)Gal
# In short: as §1
# [27] = target: Neu5Ac(a2-3)Gal(b1-4)GlcNAc(b1-3)Gal(b1-3)GlcNAc
# In short: as §1
# [28] = target: Neu5Ac(a2-3)Gal(b1-4)GlcNAc(b1-3)Gal(b1-4)GlcNAc
# In short: as §1
# [29] = target: Neu5Ac(a2-3)Gal(b1-4)GlcNAc(b1-3)Gal(b1-4)GlcNAc(b1-2)Man(a1-3)[Neu5Ac(a2-3)Gal(b1-4)GlcNAc(b1-3)Gal(b1-4)GlcNAc(b1-2)Man(a1-6)]Man(b1-4)GlcNAc(b1-4)GlcNAc
# In short: as §1
# [30] = target: Neu5Ac(a2-3)Gal(b1-4)GlcNAc(b1-3)Gal(b1-4)GlcNAc(b1-3)Gal(b1-4)GlcNAc
# In short: as §1
# [31] = target: Neu5Ac(a2-3)Gal(b1-4)GlcNAc(b1-3)Gal(b1-4)GlcNAc(b1-3)Gal(b1-4)GlcNAc(b1-2)Man(a1-3)[Neu5Ac(a2-3)Gal(b1-4)GlcNAc(b1-3)Gal(b1-4)GlcNAc(b1-3)Gal(b1-4)GlcNAc(b1-2)Man(a1-6)]GalNAc
# In short: as §1
# [32] = target: Neu5Ac(a2-3)Gal(b1-4)GlcNAc(b1-3)Gal(b1-4)GlcNAc(b1-3)GalNAc
# In short: as §1
# [33] = target: Neu5Ac(a2-3)Gal(b1-4)GlcNAc(b1-3)Gal(b1-4)GlcNAc(b1-3)[Neu5Ac(a2-3)Gal(b1-4)GlcNAc(b1-3)Gal(b1-4)GlcNAc(b1-6)]GalNAc
# In short: as §1
# [34] = target: Neu5Ac(a2-3)Gal(b1-4)GlcNAc(b1-3)Gal(b1-4)GlcNAc(b1-6)[Gal(b1-3)]GalNAc
# In short: as §1
# [35] = target: Neu5Ac(a2-3)Gal(b1-4)GlcNAc(b1-3)Gal(b1-4)[Fuc(a1-3)]GlcNAc
# In short: as §1
# [36] = target: Neu5Ac(a2-3)Gal(b1-4)GlcNAc(b1-3)GalNAc
# In short: as §1
# [37] = target: Neu5Ac(a2-3)Gal(b1-4)GlcNAc(b1-3)[Neu5Ac(a2-3)Gal(b1-4)GlcNAc(b1-6)]GalNAc
# In short: as §1
binder,measurement,setting,value
PX14375A-pdi-503-28-503 (Parabacteroides distasonis) (protein) PLGSPEAGDISEERQAFLRLTAVYSVMKDFRYTWSMQCFGDVLSNDATYSGSSNDAQTFTLLENYQYQADHTEILNKYRYSYQCINKANLFIRDMEMADDALFSKYDKEQMIGEAKFIRAYTYFELVKTFGGVPCYTGVLDLDHERLGRASVEEIYSVIEQDLNDAVSVLPKKSEVANYESSYAGRITKGAAIAMQTRIYLYEKKYDEVKKAFEKFQNECGGEYSLVAPEDYTWQFSLDGEHCSSSILEVNMYNSSTQSSYNVNNGNRHVLMSMPRNMTIGFGCAQPTQALADAYDAEGDVIRKKTTLLSTEEAIEIETAAKGDVAPVTDDRTGWYNRKLYLAPGQREENRGNNQPTNLRLIRLAEVYLNYAEACYFSGDIANAQKYLNEVRSHVNLAPKNHTGSQLFEDIMNERHLEFGMEGFRFFDVVRVGWGEKVFNGTKKAEFGAKTPFSAGAEVLPIPQTEIDISDGLITN,glycan array binding signal (z-score),[1],-0.42
same,glycan array binding signal (z-score),[2],0.826
same,glycan array binding signal (z-score),[3],-0.302
same,glycan array binding signal (z-score),[4],0.31
same,glycan array binding signal (z-score),[5],0.031
same,glycan array binding signal (z-score),[6],-0.815
same,glycan array binding signal (z-score),[7],-0.059
same,glycan array binding signal (z-score),[8],-0.911
same,glycan array binding signal (z-score),[9],-0.16
same,glycan array binding signal (z-score),[10],-0.148
same,glycan array binding signal (z-score),[11],0.243
same,glycan array binding signal (z-score),[12],-0.096
same,glycan array binding signal (z-score),[13],-0.125
same,glycan array binding signal (z-score),[14],-0.261
same,glycan array binding signal (z-score),[15],-0.21
same,glycan array binding signal (z-score),Neu5Ac(a2-3)Gal(b1-4)Glc,0.297
same,glycan array binding signal (z-score),[16],-0.063
same,glycan array binding signal (z-score),[17],0.112
same,glycan array binding signal (z-score),[18],-0.283
same,glycan array binding signal (z-score),[19],-0.508
same,glycan array binding signal (z-score),[20],-0.535
same,glycan array binding signal (z-score),[21],0.248
same,glycan array binding signal (z-score),[22],0.065
same,glycan array binding signal (z-score),[23],0.558
same,glycan array binding signal (z-score),[24],-0.587
same,glycan array binding signal (z-score),[25],0.219
same,glycan array binding signal (z-score),[26],-0.008
same,glycan array binding signal (z-score),[27],-0.225
same,glycan array binding signal (z-score),[28],0.104
same,glycan array binding signal (z-score),[29],-0.227
same,glycan array binding signal (z-score),[30],-0.259
same,glycan array binding signal (z-score),[31],1.01
same,glycan array binding signal (z-score),[32],-0.442
same,glycan array binding signal (z-score),[33],-0.036
same,glycan array binding signal (z-score),[34],0.005
same,glycan array binding signal (z-score),[35],0.01
same,glycan array binding signal (z-score),[36],-0.578
same,glycan array binding signal (z-score),[37],-0.565

# Another view of some results above.
binder | measurement | setting | value
PX14375A-pdi-503-28-503 (Parabacteroides distasonis) (protein) PLGSPEAGDISEERQAFLRLTAVYSVMKDFRYTWSMQCFGDVLSNDATYSGSSNDAQTFTLLENYQYQADHTEILNKYRYSYQCINKANLFIRDMEMADDALFSKYDKEQMIGEAKFIRAYTYFELVKTFGGVPCYTGVLDLDHERLGRASVEEIYSVIEQDLNDAVSVLPKKSEVANYESSYAGRITKGAAIAMQTRIYLYEKKYDEVKKAFEKFQNECGGEYSLVAPEDYTWQFSLDGEHCSSSILEVNMYNSSTQSSYNVNNGNRHVLMSMPRNMTIGFGCAQPTQALADAYDAEGDVIRKKTTLLSTEEAIEIETAAKGDVAPVTDDRTGWYNRKLYLAPGQREENRGNNQPTNLRLIRLAEVYLNYAEACYFSGDIANAQKYLNEVRSHVNLAPKNHTGSQLFEDIMNERHLEFGMEGFRFFDVVRVGWGEKVFNGTKKAEFGAKTPFSAGAEVLPIPQTEIDISDGLITN | glycan array binding signal (z-score) | [22] | 0.065
same | glycan array binding signal (z-score) | [23] | 0.558
